Assay [1] deals with fibronectin (human) (UniProt P02751). Nature of the assay: turbidity of mixed protein solutions (optical density at 590 nm).
Assay [2] has the same target. Briefly: turbidity (OD 590 nm) 3 hours after mixing with fibronectin in PBS, final concentration 0.5 mg/ml.

Chains of the proteins cited; added tags and fusions are not shown. Lines headed by an entry give the natural chain unless they say otherwise; changes in a name come on top. A line that says so, or that is headed by a name, gives the form on record, which may keep a tag or linker.
fibronectin (P02751, form named): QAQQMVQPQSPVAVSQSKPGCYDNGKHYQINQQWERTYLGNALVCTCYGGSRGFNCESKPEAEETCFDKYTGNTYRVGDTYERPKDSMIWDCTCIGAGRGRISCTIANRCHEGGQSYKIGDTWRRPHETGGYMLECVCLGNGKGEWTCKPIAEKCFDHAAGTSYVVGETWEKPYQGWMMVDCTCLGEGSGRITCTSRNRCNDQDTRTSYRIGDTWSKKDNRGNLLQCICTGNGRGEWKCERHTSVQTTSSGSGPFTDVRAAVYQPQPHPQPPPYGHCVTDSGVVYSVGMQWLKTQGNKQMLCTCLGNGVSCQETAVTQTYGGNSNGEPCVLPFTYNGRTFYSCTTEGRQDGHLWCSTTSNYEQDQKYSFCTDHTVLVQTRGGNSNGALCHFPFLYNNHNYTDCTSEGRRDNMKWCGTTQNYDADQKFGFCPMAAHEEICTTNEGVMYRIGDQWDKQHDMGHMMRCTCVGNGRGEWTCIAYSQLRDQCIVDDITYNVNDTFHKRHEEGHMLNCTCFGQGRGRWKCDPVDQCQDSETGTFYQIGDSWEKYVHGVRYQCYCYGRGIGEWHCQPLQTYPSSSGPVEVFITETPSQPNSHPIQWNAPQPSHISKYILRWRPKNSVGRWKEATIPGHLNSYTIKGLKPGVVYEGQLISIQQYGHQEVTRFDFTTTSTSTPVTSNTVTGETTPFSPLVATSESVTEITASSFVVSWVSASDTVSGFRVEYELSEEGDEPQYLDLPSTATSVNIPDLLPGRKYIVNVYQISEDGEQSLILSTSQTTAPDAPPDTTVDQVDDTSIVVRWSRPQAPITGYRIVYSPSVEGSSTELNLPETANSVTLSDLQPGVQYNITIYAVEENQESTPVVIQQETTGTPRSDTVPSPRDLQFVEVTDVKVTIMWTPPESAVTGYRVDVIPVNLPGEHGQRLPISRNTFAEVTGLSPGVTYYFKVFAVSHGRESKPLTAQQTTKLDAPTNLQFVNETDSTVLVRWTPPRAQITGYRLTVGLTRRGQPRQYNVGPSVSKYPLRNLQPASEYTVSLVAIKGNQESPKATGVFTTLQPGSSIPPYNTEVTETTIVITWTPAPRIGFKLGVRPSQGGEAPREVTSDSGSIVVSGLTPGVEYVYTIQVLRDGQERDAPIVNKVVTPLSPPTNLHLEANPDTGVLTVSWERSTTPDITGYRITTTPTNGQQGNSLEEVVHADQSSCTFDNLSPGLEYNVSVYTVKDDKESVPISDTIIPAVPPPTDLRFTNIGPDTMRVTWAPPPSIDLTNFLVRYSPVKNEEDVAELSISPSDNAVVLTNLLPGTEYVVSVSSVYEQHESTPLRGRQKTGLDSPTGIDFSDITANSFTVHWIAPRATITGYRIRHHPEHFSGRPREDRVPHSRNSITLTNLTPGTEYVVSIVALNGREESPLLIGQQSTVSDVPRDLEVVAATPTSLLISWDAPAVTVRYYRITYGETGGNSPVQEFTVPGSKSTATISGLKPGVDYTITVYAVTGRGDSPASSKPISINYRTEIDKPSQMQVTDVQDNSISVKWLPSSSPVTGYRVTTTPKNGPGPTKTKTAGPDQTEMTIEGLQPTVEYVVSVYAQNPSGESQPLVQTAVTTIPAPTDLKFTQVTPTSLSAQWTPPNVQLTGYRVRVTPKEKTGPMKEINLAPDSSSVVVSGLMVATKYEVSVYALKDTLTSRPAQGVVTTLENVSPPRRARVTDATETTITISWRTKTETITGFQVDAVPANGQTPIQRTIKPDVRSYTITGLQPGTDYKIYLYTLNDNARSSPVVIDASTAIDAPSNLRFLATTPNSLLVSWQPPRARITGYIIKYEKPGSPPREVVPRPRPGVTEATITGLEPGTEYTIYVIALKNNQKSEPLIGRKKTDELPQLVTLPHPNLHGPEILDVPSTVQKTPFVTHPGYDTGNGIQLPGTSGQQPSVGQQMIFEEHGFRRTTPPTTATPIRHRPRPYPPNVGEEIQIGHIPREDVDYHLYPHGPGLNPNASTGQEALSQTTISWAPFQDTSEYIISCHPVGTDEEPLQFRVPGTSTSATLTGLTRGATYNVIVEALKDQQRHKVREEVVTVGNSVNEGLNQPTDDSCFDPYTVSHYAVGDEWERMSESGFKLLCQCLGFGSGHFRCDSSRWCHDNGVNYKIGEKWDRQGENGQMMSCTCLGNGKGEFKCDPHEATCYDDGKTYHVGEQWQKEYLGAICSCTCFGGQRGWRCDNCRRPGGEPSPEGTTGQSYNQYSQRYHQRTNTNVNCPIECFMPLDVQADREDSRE

These are yes or no findings as the source states them, for the method shown. Some binding calls cover weakened binding; strength is not graded here.

Take ANIKLSVQMKLFKRHIKWKIIVKLNDGRELSLD [anginex]: the binding entry with fibronectin (human) [1] and with fibronectin (human) [2] was “binds” throughout.

Source of the values: patent publication US20040009920A1.
